Earlier results, collected in US20210369675A1, “ANTIMICROBIAL DRUG METHODS OF USE & THERAPEUTIC COMPOSITIONS” (priority 2017, published 2021).
Some results were stated once for a whole list of compounds, not compound by compound. For at least one compound, name, drawing or mass did not settle the structure. Some ranges recur; such a range may be that of the whole group of compounds.

Conditions: after oral administration; cited from earlier work

SMILES: Cc1ncc([N+](=O)[O-])n1CC(O)CCl (racemic) [(rac)-ornidazole, 1-chloro-3-(2-methyl-5-nitro-1H-imidazol-1-yl)propan-2-ol]
- terminal elimination half-life: 14 to 18 h

SMILES: Cc1ncc([N+](=O)[O-])n1C[C@@H](O)CCl [(R)-ornidazole]
- terminal elimination half-life: 14 to 18 h

SMILES: Cc1ncc([N+](=O)[O-])n1C[C@H](O)CCl [(S)-ornidazole]
- terminal elimination half-life: 14 to 18 h
